For experiment [1], the target named is Strep-RomY (Myxococcus xanthus). As to the kind of experiment: condition: only without DSP cross-linking (MglA preloaded with GTP; 20 μM of each protein); pull-down; Strep-RomY as bait on Strep-Tactin coated magnetic beads, no cross-linker; 20 μM of each protein, 30 min RT, buffer C (20 mM HEPES pH 8.0, 150 mM NaCl, 5 mM MgCl2); MglA-His6 preloaded with GTP, 10 mM GTP (5 mM in washes); 10 washes; Coomassie and α-His6 blot; both purified.

Experiment [2] has the same target. Briefly: condition: only MglA preloaded with GDP, without DSP cross-linking (20 μM of each protein); pull-down; As a1, no cross-linker, but MglA-His6 preloaded with GDP, 10 mM GDP (5 mM in washes); both purified.
For experiment [3] the target is unchanged. Briefly: condition: only MglA preloaded with GDP (20 μM of each protein); pull-down + cross-linking; As a3, with DSP, but MglA-His6 preloaded with GDP, 10 mM GDP; both purified.
For experiment [4] the target is unchanged. As to the kind of experiment: pull-down + cross-linking; Proteins at 20 μM each mixed 30 min RT in buffer C, DSP 200 μM for 5 min RT, quenched with 100 mM Tris pH 7.6, then Strep-Tactin coated magnetic beads with Strep-RomY as bait; MglA-His6 preloaded with GTP, 10 mM GTP; eluates run with or without 100 mM DTT; Coomassie, α-His6, α-MglA or α-MglB blots; both purified.

Experiment [5] shares this target. As to the kind of experiment: condition: only without DSP cross-linking (20 μM of each protein); pull-down; Strep-RomY as bait on Strep-Tactin coated magnetic beads, no cross-linker; 20 μM of each protein, 30 min RT, buffer C (20 mM HEPES pH 8.0, 150 mM NaCl, 5 mM MgCl2); MglA-His6 preloaded with GTP, 10 mM GTP (5 mM in washes); 10 washes; Coomassie and α-His6 blot; both purified.

No constants are given. Whether binding was seen depends on the method and setting. For part of these data: Binding can be weak; no strength is given. Where a sequence is shown, tags or fusion partners need not be part of it.

B1: MglA-His6 (protein, UniProt Q1DB04 1-195)
chain: MSFINYSSREINCKIVYYGPGLCGKTTNLQYIYNKTAAETKGKLISLSTETDRTLFFDFLPLSLGEIRGFKTRFHLYTVPGQVFYDASRKLILKGVDGVVFVADSQIERMEANMESLENLRINLAEQGYDLNKIPYVIQYNKRDLPNAVTVEEMRKALNHRNIPEYQAVAPTGVGVFDTLKAVAKLVLTELKKGG
For B1, the binding entry in experiment [1] is recorded as “no binding”; in experiment [2], “no binding”; in experiment [3], “no binding”; in experiment [4], “binds weakly”.

B2: His6-MglB (protein, UniProt Q1DB03 1-159)
chain: MGTQLVMYEEEFTKINAVCDRLTKDANAKVVFLVDKNGQLISSAGQTQNIDTTSLASLTAGNVAAMGGLAKLIGENEFPNQFHEGAKDSLYMTIVGSRVVLVVIFDNRTSLGLVRLRIKKASDELTKIFESLVKKTDSPGAGSPFAEISDDDIDNLFSE
Regarding B2, the figures for the binding entry in experiment [5] and in experiment [4] were “no binding” and “binds weakly”, respectively.
